Some results were stated once for a whole list of compounds, not compound by compound.
Tested on: Caco-2 cells
Experiment: Caco-2 apparent permeability
Conditions: apparent permeability coefficient
Excerpt: Absorption. Caco-2 cells cultured on a semi-permeable membrane form a highly functionalized epithelial barrier, with remarkable similarity to small intestinal epithelial cells, including high levels of brush border hydrolases and well developed junctional complexes.

Cn1cnc(S(=O)(=O)N(CCN(Cc2cncn2C)c2ccc(C#N)cc2)CC2CCCCC2)c1 [Compound 8q, 1-Methyl-1H-imidazole-4-sulfonic acid {2-[(4-cyano-phenyl)-(3-methyl-3H-imidazol-4-ylmethyl)-amino]-ethyl}-cyclohexylmethyl-amide]
CaCo: > 1.5 cm · s^−1 × 10^−6

Source: patent publication US20080312287A1, “Compound and Methods For the Treatment of Cancer and Malaria” (University of Washington, priority 2005, published 2008)
